Experimental data taken from the supplement of paper PMC3334620.
In all, about 33,000 sequences were measured (“E-score (-0.5 to 0.5)”: median about -0.016, highest 2% from about 0.3 on). This is one part of the list.

What follows are sequences tested against T1, Yer184c (UniProt P39961) (assay: PBM E-score (8-mer binding enrichment) (E-score (-0.5 to 0.5)); higher = stronger / more preferred TF binding). Conditions: protein concentration: 100 nM; construct: GST-full length.
T1 sequence: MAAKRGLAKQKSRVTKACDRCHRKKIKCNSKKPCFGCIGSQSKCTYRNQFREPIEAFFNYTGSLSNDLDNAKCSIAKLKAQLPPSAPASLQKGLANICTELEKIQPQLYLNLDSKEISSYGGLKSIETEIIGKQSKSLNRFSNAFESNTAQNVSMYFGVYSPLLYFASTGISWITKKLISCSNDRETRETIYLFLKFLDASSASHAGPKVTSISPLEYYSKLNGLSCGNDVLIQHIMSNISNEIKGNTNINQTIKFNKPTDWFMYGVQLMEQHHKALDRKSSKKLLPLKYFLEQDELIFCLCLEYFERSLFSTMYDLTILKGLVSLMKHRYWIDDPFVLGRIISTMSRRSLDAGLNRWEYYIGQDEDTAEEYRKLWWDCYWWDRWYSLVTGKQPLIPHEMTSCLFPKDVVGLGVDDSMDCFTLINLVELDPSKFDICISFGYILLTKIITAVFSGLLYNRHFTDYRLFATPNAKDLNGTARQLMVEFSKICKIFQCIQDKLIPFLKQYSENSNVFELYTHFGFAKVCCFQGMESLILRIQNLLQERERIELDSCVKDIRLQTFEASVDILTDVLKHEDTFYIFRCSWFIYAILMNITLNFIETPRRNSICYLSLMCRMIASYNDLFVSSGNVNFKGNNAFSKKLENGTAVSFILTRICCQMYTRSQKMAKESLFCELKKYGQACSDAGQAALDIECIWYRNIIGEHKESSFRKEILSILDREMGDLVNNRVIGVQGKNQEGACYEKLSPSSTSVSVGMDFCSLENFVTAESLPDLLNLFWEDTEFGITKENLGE
How it was run: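 Each ungapped eight-base word and its reverse complement, pooled, received an E-score from the Universal PBM Analysis Suite. Underlying scans, normalised with masliner, recorded fluorescent anti-GST bound to GST-tagged yeast transcription factors. These were applied at about 100-200 nM to universal all-10-mer Agilent arrays double-stranded by primer extension.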

| Sequence | PBM E-score |
| --- | --- |
| CAAAGCCG | 0.271 |
| TAAAGGCA | 0.0318 |
| ACAAAAGT | 0.105 |
| AAGGGACG | -0.26 |
| CGAGTAGA | -0.111 |
| ACAAAATC | 0.0566 |
| ACTTGATG | -0.0546 |
| ACCTGCGT | -0.142 |
| CCTTAAGG | -0.0623 |
| CGCATACG | 0.0649 |
| ATCAGTCC | -0.362 |
| GGGTTGAA | -0.0729 |
| CGCTAGGA | -0.042 |
| GAAGTAGC | -0.00548 |
| AACCACAT | -0.0437 |
| GATGGGGA | -0.22 |
| GTGGCCAA | -0.156 |
| GGCCTTTA | -0.0707 |
| TAGAGTAA | 0.0733 |
| AGATCAAG | 0.136 |
| AAGGTTCG | -0.0331 |
| GTTGGCAA | -0.00934 |
| TATGTGAA | -0.0479 |
| GCCTAACC | -0.232 |
| CAAAGTCC | -0.0601 |

| Sequence | PBM E-score |
| --- | --- |
| CCCCTTCG | -0.276 |
| CAGCGCCG | 0.208 |
| GCACATAA | -0.0273 |
| AACCTGCC | -0.129 |
| CCAGGTAC | -0.108 |
| CAGCAGAC | 0.139 |
| CGGAGAAA | 0.255 |
| CCGTGTCC | 0.163 |
| ACGTATCA | -0.0301 |
| CCAGGTAA | -0.0658 |
| AACTAATA | 0.25 |
| GCTAGGAA | 0.0829 |
| CCTACGCG | -0.163 |
| AGTGCTCG | -0.101 |
| CCAACAGA | -0.163 |
| CACCTACC | -0.229 |
| CAGAAAAA | 0.131 |
| AGCGGGGA | -0.158 |
| CGGGTTTA | 0.228 |
| ACACCGCT | -0.231 |
| CATTCTAG | -0.129 |
| GGGCTAAA | -0.0747 |
| ATCTCGAG | 0.0414 |
| ACACGTAC | -0.205 |
| CAACGGTC | 0.0501 |

Four entries from above, field by field:
ACCTGCGT
  PBM E-score = -0.142
GAAGTAGC
  PBM E-score = -0.00548
CAGCAGAC
  PBM E-score = 0.139
CCTACGCG
  PBM E-score = -0.163

Next results:

| Sequence | PBM E-score |
| --- | --- |
| AGAGGCGA | -0.246 |
| AGAGGCAA | -0.0864 |
| GGAGGCCA | -0.138 |
| GAGCAATC | 0.0694 |
| ACCTTCTA | -0.0294 |
| GCCCCATA | -0.275 |
| GCTTGGAA | -0.0326 |
| AGGTAATG | 0.0549 |
| AATTTAAA | 0.241 |
| CTCGTGAC | -0.0955 |
| ACGACCAA | 0.0102 |
| ACACTTCG | -0.0091 |
| CACAGAGG | -0.151 |
| GGACCTAC | -0.148 |
| CCTGGCCG | 0.0828 |
| AAATTTCT | 0.223 |
| CCTATGCA | -0.172 |
| CATTCGGA | 0.338 |
| CCATCCAA | 0.0304 |
| CGGGGTAA | 0.214 |
| ACAATTTC | 0.0292 |
| ATCTGCCG | 0.282 |
| CCACACGC | -0.144 |
| GACCACGC | -0.0179 |
| TCTCGCCA | -0.135 |

| Sequence | PBM E-score |
| --- | --- |
| CGTGCTAC | -0.172 |
| ACCTGGTC | -0.0673 |
| CGTTGTTC | -0.00041 |
| CAAGTAAA | 0.0872 |
| CTGGTAGA | -0.0327 |
| CTTAGAGC | 0.0355 |
| AGCTTCCA | 0.00498 |
| ACAGAGGT | -0.0473 |
| GGGTGGTA | -0.0919 |
| CGTTGAAC | -0.0122 |
| AGCGATAA | 0.0299 |
| ACAGGCCT | -0.0761 |
| CGTAACAC | 0.0589 |
| GCTTCCGA | 0.306 |
| CTCTGTAA | -0.00676 |
| ATATGGTG | -0.0255 |
| CCAACTTC | -0.0764 |
| GACCAGTA | -0.139 |
| ACCCCCAG | -0.227 |
| GTGAATTA | 0.118 |
| CGGAATAC | 0.353 |
| ACACTCTA | 0.0906 |
| ATCGTACA | 0.163 |
| AGGTCTCA | -0.0573 |
| CATCCTAG | -0.236 |

| Sequence | PBM E-score |
| --- | --- |
| AGGAAGAG | 0.00885 |
| ACCCGTCT | -0.162 |
| ACGGAGAG | -0.0167 |
| TACTAAAA | 0.149 |
| TCCTCACA | 0.0484 |
| GAGAGTGA | -0.0128 |
| AAATGTCA | 0.0731 |
| CACTCTTA | -0.0433 |
| GACACCTC | -0.0931 |
| GCGTGTCA | 0.135 |
| GCCCGGGC | 0.297 |
| ACTCCAGA | -0.0619 |
| CTTGAAAC | 0.218 |
| CTTCGACA | 0.0235 |
| ACTAGTAG | -0.0313 |
| AGAACGAT | 0.116 |
| ATGCGCAC | -0.0652 |
| CAAACGAC | 0.0292 |
| AAAGCGTG | -0.0676 |
| AGGGCGAA | -0.14 |
| CCAGCCCA | -0.258 |
| CCTGAGGC | -0.282 |
| GGGAAACA | 0.22 |
| CCGAACGA | 0.245 |
| AGCCCGCG | 0.136 |

| Sequence | PBM E-score |
| --- | --- |
| ATTTTTTA | 0.274 |
| AATGTATG | 0.0182 |
| GATCGCCA | -0.202 |
| TGTCGGAA | 0.163 |
| CATCCATG | -0.136 |
| GACCGGAA | 0.232 |
| ACTAAATC | 0.173 |
| AAAGATGA | 0.18 |
| CAGTATAG | 0.131 |
| CACACGGC | 0.205 |
| CAATCACC | -0.0272 |
| AAGATGAC | -0.0342 |
| AGATTGAG | 0.0421 |
| GGAAGTGA | 0.0956 |
| CGCGCGCC | 0.208 |
| CAAAACGC | 0.0742 |
| CGTGTTTA | -0.0463 |
| CGCGGACA | 0.214 |
| CGCTTTAC | -0.137 |
| AACGGGGA | -0.0956 |
| GCCAAGGA | -0.121 |
| GCCTGCGA | -0.223 |
| GCAATTGA | 0.0871 |
| TCATCCAA | 0.0123 |
| AATGAACT | 0.222 |

| Sequence | PBM E-score |
| --- | --- |
| CTGTTAGC | -0.0437 |
| GCGGGAGA | -0.107 |
| TGAGTGCA | -0.133 |
| AAGAAGGA | -0.197 |
| GAGTCAAC | -0.157 |
| AAGGATAT | 0.0287 |
| AATTTTTA | 0.217 |
| AACACCCG | 0.225 |
| AATTAGGA | 0.0518 |
| CCCGCAAG | -0.298 |
| ACACCGCA | 0.0328 |
| ATAAGTAC | -0.0231 |
| ACAGAGGC | -0.255 |
| CCAAGGCG | -0.0441 |
| ATTAAGGG | -0.169 |
| GACACCGC | -0.0713 |
| CGTTTTTC | -0.00305 |
| CCGCAGAC | -0.107 |
| CTTCACCA | -0.191 |
| ACACTCAG | -0.0821 |
| AGGAAATA | 0.249 |
| TGTCAAAA | 0.21 |
